Results taken from US11851440B2, “Modulators of eukaryotic initiation factor 2B, compositions and methods” (Denali Therapeutics Inc., priority 2017, dated 2023).
Some results were stated once for a whole list of compounds, not compound by compound. At least one structure is not confirmed: it was looked up by name or label, or the drawing left a doubt.

Sequences of proteins named here, by UniProt entry; tags and fusion partners are left off.
UniProt P08183, whole entry: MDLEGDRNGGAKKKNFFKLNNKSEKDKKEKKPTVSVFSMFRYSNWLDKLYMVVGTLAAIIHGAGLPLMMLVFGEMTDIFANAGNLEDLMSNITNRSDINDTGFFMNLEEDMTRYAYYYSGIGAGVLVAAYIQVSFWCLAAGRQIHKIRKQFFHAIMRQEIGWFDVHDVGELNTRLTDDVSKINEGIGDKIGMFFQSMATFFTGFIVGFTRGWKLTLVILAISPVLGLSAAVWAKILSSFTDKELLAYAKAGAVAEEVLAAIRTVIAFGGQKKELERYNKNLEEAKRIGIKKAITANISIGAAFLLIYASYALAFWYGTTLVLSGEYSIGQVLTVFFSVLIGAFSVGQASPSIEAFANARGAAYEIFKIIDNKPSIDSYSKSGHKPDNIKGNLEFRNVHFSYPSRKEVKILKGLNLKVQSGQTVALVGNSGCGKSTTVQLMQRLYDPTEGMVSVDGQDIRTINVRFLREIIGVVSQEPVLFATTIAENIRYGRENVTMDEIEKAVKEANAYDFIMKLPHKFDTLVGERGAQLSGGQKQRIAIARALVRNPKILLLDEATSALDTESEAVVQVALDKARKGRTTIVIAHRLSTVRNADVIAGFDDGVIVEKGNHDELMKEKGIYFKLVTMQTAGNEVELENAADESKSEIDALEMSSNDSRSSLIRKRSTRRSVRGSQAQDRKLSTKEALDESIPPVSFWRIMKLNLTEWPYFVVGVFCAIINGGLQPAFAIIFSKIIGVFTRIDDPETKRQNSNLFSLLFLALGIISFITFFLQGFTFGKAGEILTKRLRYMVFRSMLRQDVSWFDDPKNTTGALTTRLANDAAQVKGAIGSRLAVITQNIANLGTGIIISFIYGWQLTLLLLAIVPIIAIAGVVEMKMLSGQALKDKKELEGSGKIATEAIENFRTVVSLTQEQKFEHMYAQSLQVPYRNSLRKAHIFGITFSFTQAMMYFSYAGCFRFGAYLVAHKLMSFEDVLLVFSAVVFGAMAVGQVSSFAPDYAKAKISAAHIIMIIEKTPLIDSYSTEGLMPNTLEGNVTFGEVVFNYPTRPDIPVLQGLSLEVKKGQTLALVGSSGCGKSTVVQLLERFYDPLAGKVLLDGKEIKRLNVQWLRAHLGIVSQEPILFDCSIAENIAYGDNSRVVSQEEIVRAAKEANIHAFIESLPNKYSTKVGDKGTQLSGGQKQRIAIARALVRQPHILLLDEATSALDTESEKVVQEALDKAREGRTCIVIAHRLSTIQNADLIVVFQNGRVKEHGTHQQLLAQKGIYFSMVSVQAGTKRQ

Target: T1, P-gp (P-glycoprotein) (Homo sapiens, UniProt P08183)
T1 construct: host or cells: MDCKII-MDR1 cells (pre-plated, Corning HTS Transwell-96)
Test: MDCKII-MDR1 permeability, bidirectional assay
Type: in vitro ADME
Conditions: MDCKII-MDR1 cells; 3 μM, 90 min, HBSS+12.5 mM HEPES pH 7.4
Method: The blood brain barrier (BBB) separates circulating blood from the extracellular fluid of the central nervous system (CNS). […] A bidirectional assay (Apical to Basolateral (A→B) and Basolateral to Apical (B→A)), in the absence and in the presence of GF120918 (a P-gp inhibitor) was conducted using pre-plated MDCKII-MDR1 cells (Corning HTS Transwell-96) obtained from SOLVO Biotechnology. The assay was run at 3 μM for 90 min (minutes) in triplicate using a HBSS+12.5 mM HEPES pH 7.4 transport buffer. Following incubation of samples from donor and receiver, wells were removed and measured by LC-MS/MS. Samples were extracted by protein precipitation with acetonitrile containing an appropriate internal standard (IS) having a known mass and molecular weight. The precipitate was centrifuged for 10 min at 3000 rpm (revolutions per minute). The supernatants were then collected, diluted if necessary, and injected on to the LC-MS/MS system. Specific parent/daughter ion pairs for the test article and IS were used to selectively measure the test articles. Papp (apparent permeability expressed in nm/sec [nanometer/second]) values were calculated according to the following equation: […]
Where dQ/dt is the permeability rate, C0 is the initial concentration in the donor solution (expressed as IS ratio), A and B are the surface areas of the filter (the surface area of the cell monolayer). […]

For `O=C(NC12CC(c3nnc([C@H]4C[C@@H](OC(F)(F)F)C4)o3)(C1)C2)c1ccc2cc(F)ccc2n1` [Example 189, 6-fluoro-N-[1-[5-[3-cis-(trifluoromethoxy)cyclobutyl]-1,3,4-oxadiazol-2-yl]-3-bicyclo[1.1.1]pentanyl]quinoline-2-carboxamide], the MDCKII-MDR1 efflux ratio was “less than or equal to 2.5”.
